Results taken from patent US20080014143A1 (SANFORD BURNHAM MEDICAL RESEARCH INSTITUTE, published 2008).
No constants are given. Whether binding was seen depends on the method and setting. In cells and extracts the contact can be indirect. Some binding calls cover weakened binding; strength is not graded here.

The chains behind the UniProt entries cited, without tags or fusion partners. Residues count along the entry.
UniProt Q07021, residues 74-282: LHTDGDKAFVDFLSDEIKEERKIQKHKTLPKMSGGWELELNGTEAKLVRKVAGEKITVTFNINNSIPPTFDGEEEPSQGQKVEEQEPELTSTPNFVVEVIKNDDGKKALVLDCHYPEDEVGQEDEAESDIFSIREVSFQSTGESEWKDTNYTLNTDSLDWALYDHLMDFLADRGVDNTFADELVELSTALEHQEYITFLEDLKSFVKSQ

Legend:
[1] = biological target: endogenous gC1qR/p32 of tumor cells and tissues (extracts of MDA-MB-435 cells, BT549 cells, MDA-MB-435 tumor xenografts; blots and sections) (human) (UniProt Q07021); test: pull-down with biotinylated peptide from MDA-MB-435 cell extracts
[2] = biological target: endogenous gC1qR/p32 of tumor cells and tissues (extracts of MDA-MB-435 cells, BT549 cells, MDA-MB-435 tumor xenografts; blots and sections) (human) (UniProt Q07021); test: pull-down with biotinylated peptide from MDA-MB-435 cell and xenograft extracts
[3] = biological target: endogenous gC1qR/p32 of tumor cells and tissues (extracts of MDA-MB-435 cells, BT549 cells, MDA-MB-435 tumor xenografts; blots and sections) (human) (UniProt Q07021); test: pull-down with biotin-labeled peptide from MDA-MB-435 extracts; band identified as mature gC1qR/p32 by MALDI-TOF
[4] = biological target: endogenous gC1qR/p32 of tumor cells and tissues (extracts of MDA-MB-435 cells, BT549 cells, MDA-MB-435 tumor xenografts; blots and sections) (human) (UniProt Q07021); test: pull-down with biotinylated peptide

Measured: binding

CGNKRTRGC (biotinylated (site not told); described as a cyclic nonapeptide) [biotinylated LyP-1 peptide (…)]
binds: all assays above
